Here are results for 117 compounds from PubChem BioAssay AID2003 (Broad Institute, 2009).

Molecules are shown by their SMILES. The list shows a part of the results. Entries with a potency or affinity are not part of this list. Entries without a call are filed as inconclusive in the source.

The assay in a line: PubChem AID 2003. To be noted: H4 cells, SNCA 5'UTR luciferase reporter, luminescence; at 12 µM (top of the series) unless noted.
Consider `COc1cc(/C=C2\C(=O)N(CCC#N)N=C2C)ccc1OCC(=O)Nc1ccccc1`, for which the activation came to 1.7%.

As for `O=C(Nc1ncccc1O)c1ccc(Oc2ccccc2)cc1`, the activation was determined as 41.1%.

With `CCOC(=O)c1cn2nc(Oc3ccccc3)ccc2n1`, the activation turned out to be 26%.

Consider `O=[N+]([O-])c1cccn2cc(-c3ccc(Br)cc3)nc12`, for which the activation is 152%.

For `Cc1cc(NC(=O)/C=C/c2ccccc2Cl)no1`, the activation was 169%.

For `Cc1nc2cc(Nc3nnc(-c4ccccc4)c4ccccc34)ccc2n1C`, the activation turned out to be 56.5%.

In the case of `Cc1ccc(C(=O)CSc2nsc(C)c2C#N)cc1`, the activation was determined as 25.3%.

For the compound `CCS(=O)(=O)c1nc(S(=O)(=O)c2ccc(C)cc2)c(N2CC(C)OC(C)C2)s1` (configuration not stated), the activation turned out to be 38.5%.

`CCCc1cc2c(=O)c(-c3ccccn3)coc2cc1OC`: the activation was determined as 64%.

Consider `c1ccc(COc2ccc(-c3csnn3)cc2)cc1`, for which the activation was found to be 34%.

Regarding `CN(C)c1ccc(/C=C/c2nnnn2-c2ccccc2)cc1`, the activation worked out at 82.9%.

Consider `Nc1ncccc1OCc1ccc(Br)cc1`, for which the activation is 65.5%.

`COc1ccc(-c2nc(C#N)c(NCc3ccco3)o2)cc1`: the activation was 71.8%.

Regarding `CCC(=O)Nc1cccc(-c2nnc(SCC(=O)c3ccccc3)n2C)c1`, the activation amounted to 67.4%.

For the compound `c1ccc(-c2noc(CC3CCCCC3)n2)cc1`, the activation amounted to 67.4%.

Consider `CC(C)c1cc(C(=O)NCCc2ccccc2)no1`, for which the activation turned out to be 32.3%.

Consider `CCCn1c(C)cc(C(=O)CSc2nc3ccccc3c(=O)n2Cc2ccco2)c1C`, for which the activation was 56.8%.

In the case of `CCSc1nn2c(=O)c3ccccc3nc2s1`, the activation came out at 39.6%.

As to `CCOC(=O)c1cn[nH]c1NC(=S)Nc1ccccc1`, the activation was found to be 45.1%.

As to `Cc1c(C(=O)Nc2ccccc2[N+](=O)[O-])csc1-c1ccccc1`, the activation was 19.7%.

For `O=C(CCCc1ccccc1)NC12CC3CC(CC(C3)C1)C2`, the activation is 178%.

For the compound `Cc1cccc(OC(=O)c2sc3ncn(C)c(=O)c3c2C)c1`, the activation was 85.1%.

`CCCCSc1nc2c(cnn2-c2ccccc2)c(=O)n1N`: the activation is 71.6%.

On to `Clc1cnc(N/N=C/c2cccs2)c(Cl)c1`, for which the activation amounted to 115%.

Consider `CCS(=O)(=O)c1nnnn1-c1ccccc1S(C)(=O)=O`, for which the activation is 29.5%.

For `CCOc1ccc(N2C(=O)C(Cl)=C(Nc3ccccc3O)C2=O)cc1`, the activation turned out to be 55.4%.

As for `CN(C)c1ccc(NC(=O)c2sc(SCC(=O)Nc3nccs3)nc2N)cc1`, the activation was found to be 52.7%.

`Cn1cc(/C=C2/SC(=O)N(c3ccccc3)C2=O)c2ccccc21`: the activation amounted to 149%.

Consider `CCCCCn1cnc2sc(-c3ccccc3)cc2c1=O`, for which the activation was determined as 72.3%.

Take `CCOC(=O)c1c(C)oc2c1c1c(c3ccccc32)OCN(CCCC(=O)O)C1`: the activation came out at 91.5%.

Regarding `CCCc1cc2c(=O)c(-c3ccc4c(c3)OCCO4)coc2cc1OC(=O)c1ccco1`, the activation stood at 99.2%.

`O=C(Nc1ccccc1)N1CC=C(c2ccccc2)CC1`: the activation came out at 72.4%.

With `CC#CC(=O)N1CCC(C(=O)Nc2ccc(Oc3ccccc3)nc2)CC1`, the activation is 77.2%.

Take `COc1cc(NC(=O)n2ncc3cc(Cl)ccc32)cc(OC)c1`: the activation was found to be 60.4%.

Consider `Clc1nc(-c2ccccn2)nc2scc(-c3ccccc3)c12`, for which the activation was -18.5%.

Consider `O=C(Cc1ccccc1)NC(=S)Nc1ccc2oc(-c3ccccc3F)nc2c1`, for which the activation came to 104%.

Consider `S=C(c1ccc(-c2ccc(Br)cc2)o1)N1CCOCC1`, for which the activation is 48.1%.

As to `Cc1ccc(N=c2c([N+](=O)[O-])nn(-c3ccccc3)n2O)c(C)c1`, the activation worked out at 30.6%.

Regarding `Nc1c(-c2cccc(Cl)c2)cnc2c(-c3ccccc3)cnn12`, the activation worked out at 190%.

Regarding `O=C(Nc1cc(-c2ccccc2)[nH]n1)c1ccccc1F`, the activation stood at 61.2%.

`c1ccc(-n2ncc3c(N4CCC5(CC4)OCCO5)ncnc32)cc1`: the activation amounted to 68.5%.

On to `Cn1nnnc1Sc1ncnc2scc(-c3ccc(F)cc3)c12`, for which the activation was 20.6%.

Consider `O=C(Nc1nc2ccc([N+](=O)[O-])cc2s1)C1CCCO1` (configuration not stated), for which the activation is 71.6%.

`COc1ccc(Nc2ncnc3c2oc2ccccc23)cc1`: the activation was determined as 87%.

`c1ccc(CSc2nnc(-c3c[nH]c4ccccc34)o2)cc1`: the activation was found to be 71.7%.

Turning to `Cc1nc(-c2ccccc2)sc1-c1ccnn1C`, the activation is 43.9%.

For the compound `O=c1sc(/C=N/Nc2ccccc2)c(Cl)n1Cc1ccccc1`, the activation is 94.2%.

`O=C(CSc1nnc(-c2ccccn2)o1)Nc1cccc(Cl)c1`: the activation is 67.5%.

As to `Cc1csc(NC(=O)CSc2nsc(SCC(=O)Nc3nc(C)cs3)c2C#N)n1`, the activation is 72.2%.

Consider `Cn1c(-c2nnn(-c3ccc(F)cc3)n2)cc2ccccc21`, for which the activation is 73.1%.

Consider `COc1ccc(/C=C2\SC(=O)N(CCNC(=O)C3CC4C=CC3C4)C2=O)cc1` (configuration not stated), for which the activation amounted to 80.2%.

On to `CCN1C(=S)SC(=O)C1=C1C=C(C)N(Cc2ccco2)C(C)=C1`, for which the activation came out at 43.8%.

Regarding `COc1ccc(Cl)c2c1[nH]c1nc(SCc3ccccn3)nnc12`, the activation was 92.7%.

Consider `Fc1ccc(/C=N/NC2=Nc3cccc4cccc2c34)cc1`, for which the activation is 68.5%.

Turning to `COc1ccc(-c2cc(O)cc(O)c2)cc1`, the activation came out at 30.9%.

For the compound `COc1ccc(NC(=O)c2cc3ccccc3o/c2=N\NS(=O)(=O)c2ccc(C)cc2)cc1`, the activation was 30.9%.

For `Cc1ccc(CNC(=O)/C=C/c2cccs2)cc1`, the activation was determined as 37.3%.

`CC(=O)c1cccc(NC(=O)C(=O)Nc2cccc3ccccc23)c1`: the activation was 45.8%.

Turning to `COc1ccc(C(=O)Nc2ccccc2C(=O)N/N=C/c2cccc3ccccc23)cc1`, the activation came out at 13.1%.

`N=C1S/C(=C\c2cn[nH]c2-c2ccc(F)cc2)C(=O)N1c1ccccc1F`: the activation came out at 42.6%.

For `Nc1cc(-c2nc3ncccc3o2)ccc1Cl`, the activation stood at 88.5%.

As for `O=C(Nc1nccs1)c1c(O)c2c([nH]c1=O)CCCC2`, the activation came out at 78.6%.

As for `COc1cc(OC)cc(C(=O)NCC(=O)OCc2nc3ccccc3s2)c1`, the activation was found to be 58.3%.

Take `COC(=O)C1C(=O)c2c([nH]c(C(=O)OC3CCCCC3)c2C)CC1C` (configuration not stated): the activation turned out to be 74.7%.

With `Clc1nnc(N/N=C/c2ccccc2)c2ccccc12`, the activation worked out at 78.5%.

With `Cn1c(NC(=O)CCc2ccccc2)cc(=O)n(C)c1=O`, the activation turned out to be 54.7%.

In the case of `CC(C)(C)c1csc(NC2=NS(=O)(=O)c3ccccc32)n1`, the activation came out at 52.4%.

Consider `O=C1C(C=Nc2ccc(F)cc2)=C(O)c2ccccc21`, for which the activation is 102%.

As for `Cc1cc(O)c(C2=Nc3ccccc3SC(c3ccc(Cl)cc3)C2)c(=O)o1` (configuration not stated), the activation came out at 31.1%.

`O=[N+]([O-])C(/C=C(\Cl)[N+](=O)[O-])=C(N1CCCCC1)N1CCCCC1`: the activation turned out to be 24.5%.

`Cn1c(-c2ccc(F)cc2)cnc1SCC(=O)Nc1ccccc1N1CCOCC1`: the activation amounted to 59.4%.

For the compound `C=CCn1c(C)nc2c(sc3nc4c(cc32)COC(C)(C)C4)c1=O`, the activation turned out to be 18.8%.

As for `Cn1nnc2cc(NC(=O)Nc3cccc(Cl)c3)ccc21`, the activation was 91.5%.

For the compound `COc1ccc(C2CC(c3ccc4ccccc4c3)=NN2C(=O)COC(=O)C2CCC(=O)N2)cc1` (configuration not stated), the activation worked out at 55.2%.

Regarding `O=[N+]([O-])c1cccc(N/N=C/c2ccc(N3CCOCC3)cc2)c1`, the activation was 186%.

Regarding `c1ccc(-c2nnc(SCCC3OCCCO3)o2)cc1`, the activation is 40.1%.

Regarding `CCOC(=O)c1c(C)[nH]c(N=Nc2ccc(C)cc2)c1C`, the activation came to 120%.

Turning to `CSc1ncc(-c2ccc(Cl)cc2)[nH]1`, the activation stood at 47.6%.

With `O=c1c2c3c(sc2nc2n1N=C(c1cccs1)CS2)CCCC3`, the activation was 58.7%.

As to `Cc1cccc(-c2nc(C#N)c(NCC3CCCO3)o2)c1` (configuration not stated), the activation worked out at 47.3%.

With `Cc1cc(/C=C2/C(=O)N(C)C(=S)N2C)c(C)n1C1CC1`, the activation was found to be 168% [at 6 µM].

Turning to `O=C(Nc1ccccc1)c1cc2ccccc2c(=O)s1`, the activation was found to be 232%.

Turning to `Cn1c(C(=O)NCC2CCCO2)cc2oc3ccccc3c21` (configuration not stated), the activation came out at 26%.

Regarding `CCOC(=O)c1ccc(-c2ccc(/C=N/NC(=O)c3cncc(Br)c3)o2)cc1`, the activation is 59.1%.

In the case of `COC(=O)N1N=C(c2ccc(Br)cc2)CC1(O)C(F)(F)F` (configuration not stated), the activation was found to be 21%.

As to `Nc1c(C(=O)Nc2ccccc2Cl)nnn1-c1ccc2c(c1)OCCO2`, the activation was found to be 16.2%.

On to `O=C(Nc1ccccc1)c1cc2n(n1)C(C(F)(F)F)CC(C1CC1)N2` (configuration not stated), for which the activation was found to be 84.3%.

Take `Cc1cc(C)c(NN=c2c(=O)c3ccccc3c2=O)c(C)c1`: the activation turned out to be 22.5%.

On to `Cc1ccc(/C=N/n2cc(-c3ccccc3)[nH]c2=S)s1`, for which the activation was determined as 41.3%.

For `Cc1nc2nc(-c3ccc(Cl)cc3)nn2c(C)c1Cl`, the activation was determined as 54.7%.

For `O=C(Nc1ccccc1)OCCOc1ccccc1`, the activation was 65.5%.

As to `Cc1cc2c([nH]c3ccccc32)c2c1OC(C)(C)C=C2`, the activation came out at 75%.

In the case of `COc1ccc(/C=N/N=C2/SCC(=O)N2Cc2ccccc2)cc1`, the activation is 58.8%.

On to `O=C(Nc1ccc(N2CCOCC2)c(Cl)c1)c1ccc(Br)o1`, for which the activation was found to be 100%.

For the compound `Cc1ccc(NC(=O)Nc2ccc3oc(C)nc3c2)cc1`, the activation was 47.5%.

Turning to `Cc1nc2c3cnn(-c4ccc(C)c(C)c4)c3ncn2n1`, the activation came out at 101%.

With `Cc1cccc(NC(=O)Nc2ccc3c(c2)OCO3)n1`, the activation came to 109%.

`Cc1ccc(-n2c(C)cc(/C=C3\SC(=O)NC3=O)c2C)cc1`: the activation was found to be 116%.

As for `CC(=O)Nc1ccc2c(c1)ncn2-c1ccccc1`, the activation amounted to 44.7%.

With `O=C(Nc1cccc(Cn2cccn2)c1)c1cc2c(s1)CCCC2`, the activation was 41.7%.

For `N#C/C(=C\c1ccc(N2CCCCC2)o1)C(=O)Nc1cccc(Br)c1`, the activation came out at 133%.

As to `Nc1ccccc1C(=O)NNC1=C(C(=O)C(F)(F)F)CCC1`, the activation is 51.6%.

On to `COc1ccc(C2=NC(c3ccccc3)CO2)cc1` (configuration not stated), for which the activation came to 64.8%.

As to `O=C(OCc1ccccc1)c1ccc2c(c1)-c1ccccc1C2=O`, the activation turned out to be 48.6%.

In the case of `c1ccc(N2CCN(c3nc4cc5c(cc4s3)OCO5)CC2)cc1`, the activation turned out to be 63.1%.

As to `COc1ccc(NC(C)=O)cc1S(=O)(=O)Nc1ccccc1C(=O)NCCc1ccccc1`, the activation came out at 15.9%.

As for `COc1cccc(-c2nc3sc4c(c3c(=O)[nH]2)CCCCC4)c1`, the activation was 76.2%.

With `COc1ccccc1-c1cnn2c(NC3CCCC3)cc(C)nc12`, the activation is 77%.

Consider `COc1ccc(S(=O)(=O)N2CCCC(C(=O)Nc3ccc(NC(=O)c4ccccn4)cc3)C2)cc1` (configuration not stated), for which the activation was 48.2%.

Take `Cc1cc(C)[n+]2n1C(=O)C(c1ccccc1)=C2[O-]`: the activation amounted to 34%.

For the compound `O=C(NC1CCCCCCC1)NC1CCCCC1`, the activation came out at 54.3%.

With `CCOc1ccccc1N/C=C(\C#N)c1nc2ccccc2n1C`, the activation worked out at 33.1%.

`Cc1c(C(=O)Nc2ccccn2)oc2ccccc12`: the activation is 71.1%.

For `COc1cccc(COC(=O)Nc2ccccc2F)c1`, the activation was 40%.

As to `O=C(CNC(=O)c1ccc(F)cc1)c1ccc(Cl)cc1`, the activation turned out to be 47.1%.

Consider `Cc1ccc(N=Cc2c(O)[nH]c3ccccc23)c([N+](=O)[O-])c1`, for which the activation was found to be 47.9%.

Turning to `Cc1cc(C(=O)NC2CCCc3c2cnn3-c2cccc(C)c2C)no1` (configuration not stated), the activation was -22.5%.
